Results taken from PubChem BioAssay AID2685 (National Center for Advancing Translational Sciences (NCATS), 2010).
The whole screen tested about 320,000 compounds, of which about 2,100 (0.66%) were called active. The shares of active, inactive and inconclusive entries below differ from those in the screen. The call rests on the fitted dose curve; in most records, active means well fitted inhibition curve with a large enough effect in the signal ratio, with a control signal flat (not every such curve was filed as active); inconclusive means small, poorly fitted or top-dose-only effect, or effect the other way, or a change in a side signal; inactive means flat fitted curve, though single readings scatter; the % refers to the signal ratio. Potencies beside an inconclusive call are fits to weak or partial responses and may not hold up.

assay: qHTS Assay for Lipid Storage Modulators in Drosophila S3 Cells; settings: BODIPY lipid droplet fluorescence, 18-24 h, cells fed with added oleic acid; lipid storage change, negative = inhibition: at 46.1 µM (top of the series) unless noted
How it was run: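 Laser-scanning cytometry quantifies lipid droplet accumulation (500–530 nm total intensity; droplet/cell object ratio) in oleic acid-fed (400 uM added) Drosophila S3 cells treated with a concentration series. 20 uM Triacsin C defined 100% inhibition.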
On the % scale 0 is the no-effect control and ±100 the full control effect; potency means the concentration at half of the fitted maximal effect.

Row | Structure (SMILES) | lipid storage change, negative = inhibition | Potency
1 | COc1ccc(/C=C/C(=O)NCCC(=O)N2CCCN(C)CC2)cc1 | inconclusive: -2.64% | –
2 | Cc1ccc(C(=O)NCCCNC(=O)Cc2ccccc2)cn1 | inconclusive: -18% | –
3 | COc1ccccc1NC(=O)/C(C#N)=C/c1ccncc1 | – | active: 1.16 µM
4 | CCc1nnc(NC(=O)CCC(=O)N2CCN(C3c4ccccc4-c4ccccc43)CC2)s1 | – | inconclusive: 7.31 µM [activator, partial curve, poor fit]
5 | CCc1ccccc1NC(=O)Nc1c(C)n(C)n(-c2ccccc2)c1=O | – | inconclusive: 6.51 µM [activator, partial curve, poor fit]
6 | Cc1nn(-c2ccccc2)c2nc(N)c(C#N)c(-c3ccc(C(C)(C)C)cc3)c12 | inconclusive: -1.73% | –
7 | CCCCNC(=O)c1ccc(NC(=O)CC2SC(N3CCCC3)=NC2=O)cc1 (stereo not drawn) | inconclusive: 4.34% | –
8 | CCN(Cc1ccccc1)C(=O)c1c[nH]c2ccc(S(=O)(=O)N(C)CCC#N)cc2c1=O | inconclusive: -3.58% | –
9 | CC(NC(=O)CSC(=S)N(C)C)C12CC3CC(CC(C3)C1)C2 (stereo not drawn) | inconclusive: -27.2% | –
10 | CC(=O)N1CCN(C2c3cccc4cccc(c34)C2NS(=O)(=O)c2ccccc2)CC1 (stereo not drawn) | – | inconclusive: 5.17 µM [activator, partial curve]
11 | CCOC(=O)c1ccc(NC(=O)CCOc2ccccc2)cc1 | – | inconclusive: 16.4 µM [rising, partial curve]
12 | CCCCCCN(C(=O)CCCCCN1C(=O)NC(c2ccc(-c3ccccc3)cc2)C(C(=O)OCc2ccccc2)=C1C)C(C(=O)NCCCC)c1ccc(O)cc1 (stereo not drawn) | – | inconclusive: 3.26 µM [activator, full curve, poor fit]
13 | Cc1ccc(C)c(Cn2nnc3c(=O)[nH]c(C4CCCN(C(=O)c5cccs5)C4)nc32)c1 (stereo not drawn) | inconclusive: -100% | –
14 | N#CCCN1CCN(Cc2cc(-c3ccccc3)ccc2O)CC1 | inconclusive: -5.02% | –
15 | OCC[C@H]1C[C@@H](O)[C@H](O)[C@@]2(Cc3ccccc3CCO2)O1 | inconclusive: 0.71% | –
16 | Cc1ccc(-c2[nH]ncc2CN2CCN(C(=O)c3cccs3)CC2)cc1C | inconclusive: -10% | –
17 | O=C(NCc1ccco1)C1CC(c2ccccc2O)=NO1 (stereo not drawn) | inconclusive: 7.09% | –
18 | Cn1c(=O)c2c([nH]c(=S)n2CCCc2ccccc2)n(C)c1=O | – | inconclusive: 29.1 µM [falling, single point]
19 | Cc1ccc(NC(=O)CN(C)C(=O)C2CC(=O)N(Cc3ccccc3)C2)cc1 (stereo not drawn) | – | inconclusive: 18.4 µM [activator, single point]
20 | COc1cc2ccccc2cc1C(=O)N/N=C/c1cccnc1 | inconclusive: 58.1% | –
21 | CC1(C)Cc2c(sc(NC(=O)C(=O)NCC3CCCO3)c2C(=O)O)CO1 (stereo not drawn) | – | inconclusive: 6.51 µM [falling, single point]
22 | Cc1ccc(/C(O)=C2\C(=O)C(=O)N(C)C2c2ccc(Br)cc2)cc1 (stereo not drawn) | – | inconclusive: 29.1 µM [activator, single point]
23 | COc1ccc(N(CC(=O)Nc2c(C)n(C)n(-c3ccccc3)c2=O)S(=O)(=O)c2ccc(C)cc2)cc1OC | inconclusive: -77% | –
24 | CCCNC(=O)c1onc(CSc2ccc(F)cc2)c1C(=O)NCC1CC1 | inconclusive: 9.27% | –
25 | NC(=O)CCC(NS(=O)(=O)c1ccc(Cl)cc1)C(=O)NCc1ccc(Cl)cc1 (stereo not drawn) | – | inconclusive: 23.1 µM [activator, single point]

Two records drawn at random from the list so far, as already listed:
Row | Structure (SMILES) | lipid storage change, negative = inhibition | Potency
6 | Cc1nn(-c2ccccc2)c2nc(N)c(C#N)c(-c3ccc(C(C)(C)C)cc3)c12 | inconclusive: -1.73% | –
20 | COc1cc2ccccc2cc1C(=O)N/N=C/c1cccnc1 | inconclusive: 58.1% | –

More records

Row | Structure (SMILES) | lipid storage change, negative = inhibition | Potency
26 | COc1ccc(NC(=O)N2CCCc3ccccc32)cc1OC | – | inconclusive: 29.1 µM [activator, single point]
27 | COCC(C)NC(=O)Cn1c(SCc2ccccc2)nc2ccccc21 (stereo not drawn) | – | inconclusive: 0.461 µM [activator, partial curve]
28 | O=C(NC1CCCCC1)N1CCN(C(c2ccccc2)c2ccccc2)CC1 | inconclusive: 30.2% | –
29 | O=C(Nc1ccc(Cl)cc1)NC1CCCc2ccccc21 (stereo not drawn) | inconclusive: 0.927% | –
30 | O=C(NCc1ccncc1)c1ccccc1Nc1ccc(SC(F)F)cc1 | inconclusive: 3.69% | –
31 | Fc1cccc(Nc2ncnc3c2cnn3-c2ccccc2)c1 | inconclusive: -46.1% | –
32 | O=C1OCCC1Sc1nnc(-c2cccc(Br)c2)o1 (stereo not drawn) | – | active: 20.6 µM
33 | COc1ccc(N(C(=O)c2snc(C(N)=O)c2N)C(C(=O)NC2CCCCC2)c2ccc(C)o2)cc1 (stereo not drawn) | – | inconclusive: 0.58 µM [falling, single point]
34 | COCCn1c(-c2ccc(OC)cc2)cnc1SCC(=O)Nc1ccc(OC)cc1OC | inconclusive: -30.6% | –
35 | Cc1ccnc(NC(=O)c2ccc3c(c2)C(=O)N(CCC(C)C)C3=O)c1 | inconclusive: -95.9% | –
36 | COc1ccccc1N1CCN(c2nc(-c3ccccc3)cc(C(F)(F)F)n2)CC1 | inconclusive: 33.4% | –
37 | O=C(COC(=O)CCc1c[nH]c2ccccc12)Nc1ccccc1C(F)(F)F | inconclusive: 6.89% | –
38 | Cc1cc(-c2cn3ccccc3n2)c(C)n1-c1ccccc1 | inconclusive: -75.1% | –
39 | O=C1CCCN1c1ccc(N2CCCC2=O)cc1 | inconclusive: 68.1% | –
40 | CC(=O)N1CSCC1C(=O)N1CCN(c2ccc(N3CCOCC3)nn2)CC1 (stereo not drawn) | – | inconclusive: 0.0046 µM [activator, full curve, poor fit]
41 | Clc1ccc(-c2nnc(C3CCCCC3)o2)cc1 | inconclusive: 133% | –
42 | O=C(CNCc1ccc(F)cc1)Nc1ccccc1-c1ccccc1 | – | inconclusive: 6.51 µM [rising, partial curve]
43 | O=C(NCc1cccs1)c1cc(-c2ccccc2)on1 | inconclusive: -54.5% | –
44 | COc1ccc2c([N+](=O)[O-])c(N3CCCC3)[nH]c2c1 | – | inconclusive: 16.4 µM [activator, single point]
45 | O=C(Nc1ccc(Cl)cc1)N(CCCN1CCOCC1)Cc1cccs1 | – | inconclusive: 11.6 µM [activator, partial curve]
46 | COc1cccc(/C=N/c2nc3ccccc3n2C)c1O | inconclusive: 107% | –
47 | CCOc1ccccc1/C=C/c1cc(C(=O)O)c2ccccc2n1 | inconclusive: 38.1% | –
48 | CCOC(=O)C1CCCN(C2CC(=O)N(c3ccccc3)C2=O)C1 (stereo not drawn) | inconclusive: -32.6% [at 0.369 µM] | –
49 | Cc1ccc2sc(NNC(=O)c3cc(=O)c4ccccc4o3)nc2c1C | – | inconclusive: 10.3 µM [falling, partial curve]
50 | c1ccc2c(CCNc3ncnc4nc[nH]c34)c[nH]c2c1 | – | inconclusive: 18.4 µM [falling, single point]

Part of the list above, with each value named.
O=C(NCc1ccncc1)c1ccccc1Nc1ccc(SC(F)F)cc1
  lipid storage change, negative = inhibition: inconclusive: 3.69%
Fc1cccc(Nc2ncnc3c2cnn3-c2ccccc2)c1
  lipid storage change, negative = inhibition: inconclusive: -46.1%

(list continues)

Row | Structure (SMILES) | lipid storage change, negative = inhibition | Potency
51 | Cc1cc(C)cc(OCCNC(=O)C(C)N2C(=O)c3ccccc3C2=O)c1 (stereo not drawn) | inconclusive: -12% | –
52 | O=C(CN(Cc1ccc(F)cc1)C(=O)CCC(=O)Nc1ccccn1)NCc1ccc(F)cc1 | – | inconclusive: 0.146 µM [falling, single point]
53 | COC(=O)c1noc(-c2ccc(OC)cc2)n1 | – | inconclusive: 0.0052 µM [falling, full curve, poor fit]
54 | Cc1c(OC(C)C(=O)NCC2CCC(C(=O)O)CC2)ccc2c(-c3ccccc3)cc(=O)oc12 (stereo not drawn) | – | inconclusive: 3.66 µM [falling, single point]
55 | COc1cc2c(cc1OC)C1=NC(=O)CN1C(SCc1ccccc1C)=N2 | inconclusive: -49.4% | –
56 | O=C(NCC1CCCO1)c1cccc(S(=O)(=O)N2CCCCC2)c1 (stereo not drawn) | – | inconclusive: 0.0052 µM [activator, full curve, poor fit]
57 | CC(C)(O)C#Cc1ccc(C(=O)Nc2ccc3c(c2)OCO3)s1 | – | inconclusive: 0.92 µM [activator, full curve, poor fit]
58 | CC(C)(CSc1ncccn1)NS(=O)(=O)c1ccccc1 | inconclusive: -2.88% | –
59 | O=C(O)c1ccc(NS(=O)(=O)c2ccc3c(c2)OCCO3)cc1 | inconclusive: 0.161% | –
60 | COc1ccc(C2(C)NC(=O)N(CC(=O)Nc3ccc(-c4nc5ccc(C)cc5s4)cc3)C2=O)cc1 (stereo not drawn) | inconclusive: -51.3% [cytotoxic] [at 0.00295 µM] | –
61 | Cc1ccc(-c2cc(C(=O)Nc3ccc(S(=O)(=O)N4CC(C)OC(C)C4)cc3)[nH]n2)c(O)c1 (stereo not drawn) | inconclusive: -17.3% | –
62 | COc1ccc(NC(=O)CSc2cc(C)ccc2C)cn1 | inconclusive: 3.39% | –
63 | CCCc1cc(=O)[nH]c(SCC(N)=O)n1 | – | inconclusive: 10.3 µM [falling, partial curve]
64 | COc1ccc2c(c1)SC1=NCCS(=O)(=O)N12 | inconclusive: -22.9% | –
65 | N#Cc1ccc(-c2csc(NNC(=O)c3ccccc3)n2)cc1 | inconclusive: -50.9% | –
66 | O=C(c1nnc(Cc2ccc(Cl)cc2)o1)N1CCOCC1 | inconclusive: -0.679% | –
67 | CC(C)(C)NC(=O)c1ccncc1 | – | inconclusive: 3.66 µM [falling, full curve]
68 | Cc1ccc(CNC(=O)C2CCCN2S(=O)(=O)c2ccc(F)cc2)cc1 (stereo not drawn) | inconclusive: 32.4% | –
69 | CS(=O)(=O)N1CCN(c2ccc(NC(=O)COc3ccccc3[N+](=O)[O-])cc2)CC1 | inconclusive: 72.3% | –
70 | COc1ccc(C2CC(c3ccc(Cl)cc3Cl)Nc3nc(N)nn32)cc1 (stereo not drawn) | – | inconclusive: 9.2 µM [activator, partial curve]
71 | Cc1cc(NC(=O)c2ccccc2)n(-c2nc3ccccc3[nH]2)n1 | inconclusive: 17.6% | –
72 | Cc1onc(-c2ccc3c(c2)OCO3)c1-c1ccc2[nH]ccc2c1 | – | inconclusive: 2.59 µM [activator, full curve]
73 | O=C(/C=C1\NC2(CCCC2)Cc2ccccc21)C(=O)N/N=C/c1ccc(O)c(O)c1 | – | inconclusive: 32.6 µM [falling, single point]
